Results: patent US4070492A, “Propranolol assay” (priority 1977, dated 1978)

Test system: antisera against d,l-propranolol and l-propranolol
Assay: Sensitivity of radioimmunoassay for d,l-propranolol and its l-isomer in phosphate-buffered saline and serum
Set-up: species or system rabbit
Settings: for detection limit of radioimmunoassay: both antisera; for upper limit of linearity of radioimmunoassay: linear up to

For `CC(C)NCC(O)COc1cccc2ccccc12` (racemic) [propranolol], the “detection limit of radioimmunoassay” value was 10 pg and the “upper limit of linearity of radioimmunoassay” value was 5,000 pg.
For `CC(C)NC[C@H](O)COc1cccc2ccccc12` [l-propranolol], the “detection limit of radioimmunoassay” value was 10 pg and the “upper limit of linearity of radioimmunoassay” value was 2,000 pg.
